PubChem BioAssay AID1159578, Peter MacCallum Cancer Centre – 2015
The deposit covers about 18,000 reagents; shown is a random part of them. About 1,030 of them (5.7%) count as active. 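Inactive calls also include pools with fewer than 3300 nuclei, whose migration was not assessed.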 Raw values vary from plate to plate and are shown uncorrected. A number with no mark means an inactive call.

Screen: 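Knock-downs that alter how fast lymphatic endothelial cells migrate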 (primary screen)
System: human lymphatic endothelial cells
Knock-down reagent: siRNA pool against human genes, 40 nM
Time to read-out: 48 h after transfection
Read-out: 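Cells stained with dye and imaged after a scratch; covered wound area and nuclei counted, duplicates averaged, migration set against mock wells and turned into a robust z-score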
Direction: migration robust z-score: higher = faster migration into the scratch; migration relative to mock: higher = more scratch area covered than mock; nuclei per well: higher = more cells in the well
Hit rule: 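Pools averaging fewer than 3300 nuclei are never called; remaining pools count as changed when migration robust z lies outside -2 to 2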
Calls: active = migration changed; inactive = no migration change, or too few cells

target | migration robust z-score | migration class with cell-count check | migration relative to mock | nuclei per well, duplicate mean
SP8 (GeneID 221833) | 0.54 | migration z between -2 and 2; enough cells | 1.02 | 7306
ADAM19 (GeneID 8728) | -0.05 | migration z between -2 and 2; enough cells | 0.79 | 5934
ACOT6 (GeneID 641372) | 1.14 | migration z between -2 and 2; enough cells | 1.02 | 5186
CNR2 (GeneID 1269) | -0.84 | migration z between -2 and 2; enough cells | 0.64 | 5770
MRPS33 (GeneID 51650) | -0.26 | migration z between -2 and 2; enough cells | 0.82 | 6200
GABBR1 (GeneID 2550) | 0.7 | migration z between -2 and 2; enough cells | 0.94 | 6942
CLEC4C (GeneID 170482) | 0.69 | migration z between -2 and 2; enough cells | 1.06 | 4132
TUBD1 (GeneID 51174) | -0.78 | migration z between -2 and 2; enough cells | 0.66 | 5587
FREY1 (GeneID 143678) | -1.02 | migration z between -2 and 2; enough cells | 0.62 | 5640
RETREG3 (GeneID 162427) | 2.2 (active) | migration z above 2; enough cells | 1.46 | 6274
SEC24A (GeneID 10802) | 0.72 | migration z between -2 and 2; enough cells | 0.94 | 6866
LRRC20 (GeneID 55222) | 0.48 | migration z between -2 and 2; enough cells | 1.01 | 4844
CSAG1 (GeneID 158511) | 1.08 | migration z between -2 and 2; enough cells | 1.17 | 4997
ZP4 (GeneID 57829) | -0.5 | migration z between -2 and 2; enough cells | 0.76 | 5664
BBC3 (GeneID 27113) | -0.87 | migration z between -2 and 2; enough cells | 0.66 | 6088
TMED5 (GeneID 50999) | 0.78 | migration z between -2 and 2; enough cells | 1.08 | 3946
PRDM7 (GeneID 11105) | -0.91 | migration z between -2 and 2; enough cells | 0.65 | 5800
IL12A (GeneID 3592) | -0.78 | migration z between -2 and 2; enough cells | 0.68 | 5880
PHF7 (GeneID 51533) | -0.08 | migration z between -2 and 2; enough cells | 0.79 | 5143
UCKL1 (GeneID 54963) | 0.73 | migration z between -2 and 2; enough cells | 0.94 | 5904
RAB6C (GeneID 84084) | 1.46 | migration z between -2 and 2; enough cells | 1.08 | 5807
MAX (GeneID 4149) | 1.01 | migration z between -2 and 2; enough cells | 1.15 | 5828
DSG2 (GeneID 1829) | 0.95 | migration z between -2 and 2; enough cells | 1.13 | 6864
SFMBT1 (GeneID 51460) | 1.38 | migration z between -2 and 2; enough cells | 1.25 | 5785
ACRV1 (GeneID 56) | -0.6 | migration z between -2 and 2; enough cells | 0.72 | 4461
PDE7A (GeneID 5150) | 0.91 | migration z between -2 and 2; enough cells | 0.98 | 3669
KCTD18 (GeneID 130535) | 0.88 | migration z between -2 and 2; enough cells | 1.11 | 5442
CES4A (GeneID 283848) | 0.39 | migration z between -2 and 2; enough cells | 0.88 | 6189
NSUN5P2 (GeneID 260294) | 2.07 (active) | migration z above 2; enough cells | 1.42 | 5912
MICALL1 (GeneID 85377) | 0.36 | migration z between -2 and 2; enough cells | 0.98 | 5502
CNKSR3 (GeneID 154043) | -0.38 | migration z between -2 and 2; enough cells | 0.78 | 4920
LAIR1 (GeneID 3903) | 0.62 | migration z between -2 and 2; enough cells | 0.92 | 6348
HK2 (GeneID 3099) | -0.36 | migration z between -2 and 2; enough cells | 0.74 | 4166
OR1L3 (GeneID 26735) | 1.07 | migration z between -2 and 2; enough cells | 1.17 | 5871
ZNF471 (GeneID 57573) | -0.97 | under 3300 nuclei; migration not judged | 0.64 | 3158
TDRD10 (GeneID 126668) | 0.87 | migration z between -2 and 2; enough cells | 1.1 | 6787
DUSP10 (GeneID 11221) | -0.47 | migration z between -2 and 2; enough cells | 0.72 | 5080
CSMD1 (GeneID 64478) | -0.94 | migration z between -2 and 2; enough cells | 0.64 | 5636
NT5C3A (GeneID 51251) | 0.42 | migration z between -2 and 2; enough cells | 0.88 | 5758

Records listed so far whose gene name begins with D or d (2):
target | migration robust z-score | migration class with cell-count check | migration relative to mock | nuclei per well, duplicate mean
DSG2 (GeneID 1829) | 0.95 | migration z between -2 and 2; enough cells | 1.13 | 6864
DUSP10 (GeneID 11221) | -0.47 | migration z between -2 and 2; enough cells | 0.72 | 5080
